Test results published in patent publication US4001223A, “Adamantane-piperazine derivatives” (Idemitsu Kosan Co., Ltd., priority 1975, dated 1977).

Assays:
[1] = test system: Vessels excised from guinea-pigs; assay: Inhibition of adrenalin-induced contraction of isolated smooth muscle (vessels excised from guinea-pigs); details: contracting substance Adrenalin 2.86×10^-6 g/ml; effective concentration 1×10^-5 g/ml
[2] = test system: Small intestine excised from guinea-pigs; assay: Inhibition of histamine-induced contraction of isolated smooth muscle (small intestine excised from guinea-pigs); details: contracting substance Histamine 1.00×10^-7 g/ml; effective concentration 1×10^-5 g/ml
[3] = test system: Small intestine excised from guinea-pigs; assay: Inhibition of BaCl2-induced contraction of isolated smooth muscle (small intestine excised from guinea-pigs); details: contracting substance BaCl2 2.00×10^-3 g/ml; effective concentration 1×10^-5 g/ml
[4] = test system: Small intestine excised from guinea-pigs; assay: Inhibition of acetylcholine-induced contraction of isolated smooth muscle (small intestine excised from guinea-pigs); details: contracting substance Acethylcholine 5.43×10^-4 g/ml; effective concentration 2.30×10^-6 g/ml

## C(=C\c1ccccc1)/CN1CCN(C(c2ccccc2)c2ccccc2)CC1 [Cinnarizine, reference compound]
[1]
  Inhibitory rate: 32.50%
[2]
  Inhibitory rate: 91.9%
[3]
  Inhibitory rate: 25.2%
[4]
  Inhibitory rate: 28.15%
